Laboratory results published in PMC10730906.
Results are given in words; binding and its absence hold for the method and conditions named. Binding can be weak; no strength is given. For some of these results: Where a sequence is shown, tags or fusion partners need not be part of it. For some of these results: Binding seen in cells or lysates may run through a third protein.

Amino acid sequences for entries named in this document (tags omitted). A change or cut given only in a name is not applied to a line headed by its entry.
UniProt Q2G0W7: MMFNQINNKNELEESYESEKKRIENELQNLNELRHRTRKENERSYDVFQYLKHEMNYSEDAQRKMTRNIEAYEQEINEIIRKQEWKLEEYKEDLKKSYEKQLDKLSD
UniProt Q2G0W6: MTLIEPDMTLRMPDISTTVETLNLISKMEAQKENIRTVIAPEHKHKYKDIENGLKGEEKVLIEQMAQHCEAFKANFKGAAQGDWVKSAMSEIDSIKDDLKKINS

Legend:
[1] = molecular target: T1, His-TilA without its signal sequence (SAOUHSC_00405), as coproduced in the complex (S. aureus) (UniProt Q2G0W9); experiment: pull-down + SEC; His-TilA, TslA, TlaA1-Strep and TlaA2-Myc coproduced; lysate on HisTrap, peak fraction on StrepTrap, then SEC; SDS-PAGE of peak fractions
T1 sequence: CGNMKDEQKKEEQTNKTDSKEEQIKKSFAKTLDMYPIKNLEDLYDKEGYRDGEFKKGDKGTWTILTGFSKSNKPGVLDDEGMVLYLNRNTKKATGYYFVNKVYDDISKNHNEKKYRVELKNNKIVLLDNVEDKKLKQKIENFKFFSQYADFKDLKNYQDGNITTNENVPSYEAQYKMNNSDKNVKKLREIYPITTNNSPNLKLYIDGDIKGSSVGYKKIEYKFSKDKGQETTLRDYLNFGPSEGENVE

[2] = molecular target: Strep-tagged TlaA1 (SAOUHSC_00407) (S. aureus) (UniProt Q2G0W7); experiment: pull-down + SEC; His-TslACT, Strep-TlaA1 and Myc-TlaA2 co-overproduced; successive Ni-affinity and Streptactin-affinity purification, then SEC; peak fractions analysed by SDS-PAGE and western blot (anti-TslA, anti-Strep, anti-Myc)
[3] = molecular target: Strep-tagged TlaA1 (SAOUHSC_00407) (S. aureus) (UniProt Q2G0W7); experiment: pull-down + SEC; His-TilA, TslA, TlaA1-Strep and TlaA2-Myc coproduced; lysate on HisTrap, peak fraction on StrepTrap, then SEC; SDS-PAGE of peak fractions
[4] = molecular target: T1, His-TilA without its signal sequence (SAOUHSC_00405), as coproduced in the complex (S. aureus); experiment: cryo-EM structure; co-purified TilA-TslA-TlaA1-TlaA2 complex at 0.5 mg/ml; 7.3 Å volume; AlphaFold model fitted as a rigid body; no density for TlaA1
[5] = molecular target: TslA lipase domain, bacterial two-hybrid fusion (S. aureus); experiment: two-hybrid; bacterial two-hybrid, T18 and T25 fusions co-transformed into E. coli BTH101, spotted on MacConkey agar with 1% maltose, 30 °C for 40 h

“Strep-tagged TlaA1 (SAOUHSC_00407) (from UniProt Q2G0W7)” was tested, and the binding [1] was “binds”.

In the case of “Myc-tagged TlaA2 (SAOUHSC_00408) (from UniProt Q2G0W6)”, the binding [2] is reported as “binds”, the binding [3] is reported as “binds” and the binding [1] is reported as “binds”.

With “TslA (SAOUHSC_00406) as coproduced in the TilA-TslA-TlaA1-TlaA2 complex (S. aureus)” the binding [4] was “binds” and the binding [1] was “binds”.

B1: TilA, bacterial two-hybrid fusion (protein, UniProt Q2G0W9 1-270)
chain: MEYIKKIALYMSVLLLIIFIGGCGNMKDEQKKEEQTNKTDSKEEQIKKSFAKTLDMYPIKNLEDLYDKEGYRDGEFKKGDKGTWTILTGFSKSNKPGVLDDEGMVLYLNRNTKKATGYYFVNKVYDDISKNHNEKKYRVELKNNKIVLLDNVEDKKLKQKIENFKFFSQYADFKDLKNYQDGNITTNENVPSYEAQYKMNNSDKNVKKLREIYPITTNNSPNLKLYIDGDIKGSSVGYKKIEYKFSKDKGQETTLRDYLNFGPSEGENVE
In the case of B1, the binding [5] is reported as “binds weakly”.
